No constants are given. Whether binding was seen depends on the method and setting. In cells and extracts the contact can be indirect. Some entries that bind do so weakly or less than the wild type. For part of these data: Sequences can lack the tags named with a protein.
What was measured:
Experiment in all cases: pull-down
[1] = target: Imd2-TAP (S. cerevisiae (TAP-tagged yeast strain)) (UniProt P38697)
[2] = target: T1, Nrd1 (TAP-tagged version) (S. cerevisiae (TAP-tagged yeast strain)) (UniProt P53617)
T1 sequence: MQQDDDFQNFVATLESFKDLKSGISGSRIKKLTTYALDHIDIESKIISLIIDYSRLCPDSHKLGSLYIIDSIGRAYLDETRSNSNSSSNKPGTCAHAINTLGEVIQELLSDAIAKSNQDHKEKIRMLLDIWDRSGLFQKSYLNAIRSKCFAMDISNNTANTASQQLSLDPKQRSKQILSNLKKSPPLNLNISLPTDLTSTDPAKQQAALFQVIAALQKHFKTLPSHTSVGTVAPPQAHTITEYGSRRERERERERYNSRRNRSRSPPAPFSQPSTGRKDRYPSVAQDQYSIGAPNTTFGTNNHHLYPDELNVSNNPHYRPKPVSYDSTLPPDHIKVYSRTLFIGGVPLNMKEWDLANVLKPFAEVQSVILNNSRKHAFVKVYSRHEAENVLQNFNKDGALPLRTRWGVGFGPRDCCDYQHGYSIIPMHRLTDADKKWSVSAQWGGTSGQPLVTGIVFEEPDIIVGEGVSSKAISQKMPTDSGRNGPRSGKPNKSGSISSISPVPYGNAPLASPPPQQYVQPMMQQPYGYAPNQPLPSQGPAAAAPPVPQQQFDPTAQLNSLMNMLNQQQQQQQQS

Protein sequences, listed by entry. Tags and fused reporters are not part of them.
UniProt P38697: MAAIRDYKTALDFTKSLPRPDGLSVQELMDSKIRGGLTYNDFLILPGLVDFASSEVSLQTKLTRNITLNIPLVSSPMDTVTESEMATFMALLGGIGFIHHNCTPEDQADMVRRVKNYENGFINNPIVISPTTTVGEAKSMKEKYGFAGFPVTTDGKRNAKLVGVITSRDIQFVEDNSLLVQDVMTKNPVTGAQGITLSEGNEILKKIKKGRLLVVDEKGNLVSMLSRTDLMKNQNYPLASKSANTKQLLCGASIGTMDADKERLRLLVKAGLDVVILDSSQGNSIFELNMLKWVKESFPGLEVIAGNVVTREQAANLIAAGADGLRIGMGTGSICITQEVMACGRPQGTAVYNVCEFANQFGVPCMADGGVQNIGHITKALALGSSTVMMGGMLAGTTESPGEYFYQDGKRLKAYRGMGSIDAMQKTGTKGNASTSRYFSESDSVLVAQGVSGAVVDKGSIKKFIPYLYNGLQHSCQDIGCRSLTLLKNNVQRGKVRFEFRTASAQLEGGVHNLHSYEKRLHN

[3] = target: T2, Puf2 (TAP-tagged version) (S. cerevisiae (TAP-tagged yeast strain)) (UniProt Q12221)
T2 sequence: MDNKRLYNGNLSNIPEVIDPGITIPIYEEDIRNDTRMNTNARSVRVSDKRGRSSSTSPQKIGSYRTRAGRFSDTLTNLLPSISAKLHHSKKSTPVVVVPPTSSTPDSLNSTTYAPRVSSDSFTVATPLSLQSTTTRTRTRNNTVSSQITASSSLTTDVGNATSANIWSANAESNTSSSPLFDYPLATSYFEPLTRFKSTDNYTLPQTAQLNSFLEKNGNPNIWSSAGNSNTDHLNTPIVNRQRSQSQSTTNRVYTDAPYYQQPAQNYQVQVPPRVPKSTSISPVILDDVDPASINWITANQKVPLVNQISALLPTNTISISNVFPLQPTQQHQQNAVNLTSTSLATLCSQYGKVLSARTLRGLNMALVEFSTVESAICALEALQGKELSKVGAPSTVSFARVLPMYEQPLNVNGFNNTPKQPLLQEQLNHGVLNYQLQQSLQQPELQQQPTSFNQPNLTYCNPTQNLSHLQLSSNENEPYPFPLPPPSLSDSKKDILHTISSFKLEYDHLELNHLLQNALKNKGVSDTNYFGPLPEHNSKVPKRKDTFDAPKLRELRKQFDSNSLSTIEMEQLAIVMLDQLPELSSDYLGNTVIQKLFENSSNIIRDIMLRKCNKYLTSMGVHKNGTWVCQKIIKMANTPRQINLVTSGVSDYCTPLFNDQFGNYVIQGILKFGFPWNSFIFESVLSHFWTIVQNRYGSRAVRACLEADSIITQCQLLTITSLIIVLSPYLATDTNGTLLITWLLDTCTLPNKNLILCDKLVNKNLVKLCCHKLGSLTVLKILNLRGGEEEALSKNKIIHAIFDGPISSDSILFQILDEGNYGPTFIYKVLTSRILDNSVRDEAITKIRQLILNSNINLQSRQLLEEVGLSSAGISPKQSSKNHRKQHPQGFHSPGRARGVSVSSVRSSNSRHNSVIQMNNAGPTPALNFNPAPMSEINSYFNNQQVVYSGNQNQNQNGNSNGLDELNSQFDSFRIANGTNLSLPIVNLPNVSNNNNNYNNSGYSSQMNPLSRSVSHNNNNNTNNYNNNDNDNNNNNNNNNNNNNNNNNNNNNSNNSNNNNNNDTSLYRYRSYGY

- binding [1]: no binding
- binding [2]: no binding
- binding [3]: binds weakly
B1: Rpb4 (protein, UniProt P20433 1-221)
chain: MNVSTSTFQTRRRRLKKVEEEENAATLQLGQEFQLKQINHQGEEEELIALNLSEARLVIKEALVERRRAFKRSQKKHKKKHLKHENANDETTAVEDEDDDLDEDDVNADDDDFMHSETREKELESIDVLLEQTTGGNNKDLKNTMQYLTNFSRFRDQETVGAVIQLLKSTGLHPFEVAQLGSLACDTADEAKTLIPSLNNKISDDELERILKELSNLETLY

Reference: article doi:10.1101/2020.07.25.220095
